{"source": "patent US7973050B2", "about": "(Crestone, Inc., priority 2006, dated 2011)", "note": "Counter-ions that a name gives are not always drawn. Some results were stated once for a whole list of compounds, not compound by compound. Some compounds share one range, which may span the group rather than tell each member.", "data": [{"tested_on": "S. aureus, E. faecalis, E. faecium, S. pyogenes, S. epidermidis and S. haemolyticus", "assay": "MIC against panel of Gram-positive aerobic bacteria, CLSI broth microdilution", "type": "cell-based", "conditions": "including resistant strains, range stated for the group", "units": {"MIC range against all isolates of Gram-positive panel": "ng/mL"}, "values": [{"smiles": "O=c1cc(NCCCN[C@@H]2CCOc3c(Br)cc(Br)cc32)[nH]c2ccsc12", "note": "(single isomer, unassigned) [Example 2, di-hydrochloride]", "MIC range against all isolates of Gram-positive panel": "<8 to 8000"}, {"smiles": "O=c1cc(NCCCN[C@@H]2CCCc3c(Br)cc(Br)cc32)[nH]c2ccsc12", "note": "[Example 10, 5-[3-((R)-5,7-Dibromo-1,2,3,4-tetrahydro-naphthalen-1-ylamino)-propylamino]-4H-thieno[3,2-b]pyridine-7-one]", "MIC range against all isolates of Gram-positive panel": "<8 to 8000"}, {"smiles": "O=c1cc(NCCCN[C@@H]2COc3c(Br)cc(Br)cc32)[nH]c2ccsc12", "note": "[Example 11, 5-[3-((S)-5,7-Dibromo-2,3-dihydro-benzofuran-3-ylamino)-propylamino]-4H-thieno[3,2-b]pyridine-7-one]", "MIC range against all isolates of Gram-positive panel": "<8 to 8000"}]}]}
